Results: PMC6386767, “Characterization of recombinant fructose-1,6-bisphosphatase gene mutations: evidence of inhibition/activation of FBPase protein by gene mutation” (Bioscience Reports, 2019)

Sequences of proteins named here, by UniProt entry; tags and fusion partners are left off.
UniProt P00636, whole entry K113A: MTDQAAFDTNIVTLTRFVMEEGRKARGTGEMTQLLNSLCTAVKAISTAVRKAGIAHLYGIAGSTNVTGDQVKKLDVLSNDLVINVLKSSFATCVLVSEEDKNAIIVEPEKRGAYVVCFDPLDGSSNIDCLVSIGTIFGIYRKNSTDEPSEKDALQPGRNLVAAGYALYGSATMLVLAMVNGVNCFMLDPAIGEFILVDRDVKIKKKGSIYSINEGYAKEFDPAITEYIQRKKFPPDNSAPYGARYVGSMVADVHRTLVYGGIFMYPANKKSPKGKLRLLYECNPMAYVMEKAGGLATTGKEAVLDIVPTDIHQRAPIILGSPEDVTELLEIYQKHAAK

Biological target: pig kidney FBPase K112A (Sus scrofa, UniProt P00636, K113A)
Test: Malachite Green kinetic assay, K112A mutant
Conditions: enzyme K112A

AMP Hill coefficient: 1.0 and 1 )
Structure (SMILES): Nc1ncnc2c1ncn2[C@@H]1O[C@H](COP(=O)(O)O)[C@@H](O)[C@H]1O

Certain results were filed several times, with different values. This is not the full list of results. An entry can have further records. Values that stand side by side appear to be repeats (runs, samples, wells or individuals).
